Results are given in words; binding and its absence hold for the method and conditions named. Some results given as binding are weak or reduced against the parent protein; the word gives no strength.
Legend:
[1] = target: primate MCP-1 (cynomolgus and rhesus) (UniProt P61274); experiment: ELISA, antigen immobilized, 293-EBNA transfectants
[2] = target: primate MCP-1 (cynomolgus and rhesus) (UniProt P61274); experiment: ELISA, FIG. 14
[3] = target: primate MCP-1 (cynomolgus and rhesus) (UniProt P61274); experiment: ELISA, 50 ng MCP-1 per well
[4] = target: primate MCP-1 (cynomolgus and rhesus) (UniProt P61274); experiment: ELISA on plate-coated primate MCP-1, anti-human IgG-HRP; y axis unlabelled, OD 405 nm per paragraph 382
[5] = target: primate MCP-1 (cynomolgus and rhesus) (UniProt P61274); experiment: ELISA
murine MCP-5 (mouse) = murine MCP-5 (mouse) (UniProt Q62401); experiment: ELISA, purified mAb 10 µg/ml
human MCP-1 (human) [6] = target: human MCP-1 (human) (UniProt P13500); experiment: ELISA, purified mAb 10 µg/ml
[7] = target: murine MCP-1 (JE) (mouse) (UniProt P10148); experiment: ELISA, purified mAb 10 µg/ml
murine MCP-3 (mouse) = murine MCP-3 (mouse) (UniProt Q03366); experiment: ELISA, purified mAb 10 µg/ml
human MCP-1 (human) [8] = target: human MCP-1 (human) (UniProt P13500); experiment: ELISA, hybridoma supernatant
human MCP-1 (human) [9] = target: human MCP-1 (human) (UniProt P13500); experiment: summary of Tables 3 and 5 (ELISA)
[10] = target: primate MCP-1 (cynomolgus and rhesus) (UniProt P61274); experiment: ELISA, mAb 10 µg/ml on synthetic cynomolgus and rhesus MCP-1

Amino acid sequences for entries named in this document (tags omitted). Residues count along the entry.
UniProt Q62401, residues 23-104: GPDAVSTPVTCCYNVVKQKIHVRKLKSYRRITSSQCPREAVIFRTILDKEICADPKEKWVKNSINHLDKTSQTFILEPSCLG
UniProt P10148, residues 24-148: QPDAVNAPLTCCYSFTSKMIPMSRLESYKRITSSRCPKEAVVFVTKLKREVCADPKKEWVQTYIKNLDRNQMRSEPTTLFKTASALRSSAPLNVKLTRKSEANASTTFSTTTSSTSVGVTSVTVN

Measured: binding

B1: humanized 11K2 H1-L1 (antibody, human IgG1, kappa, V domains shown)
VH: QVQLVQSGAEVKKPGSSVKVSCKASGLNIKDTYMHWVRQAPGQGLEWIGRIDPANGNTKFDPKFQGRATITADTSTSTAYMELSSLRSEDTAVYYCARGVFGFFDYWGQGTTVTVSS
VL: DIQMTQSPSSLSASVGDRVTITCKATEDIYNRLAWYQQKPGKAPKLLISGATSLETGVPSRFSGSGSGKDYTLTISSLQPEDFATYYCQQFWSAPYTFGGGTKVEIKR
binds: [1] | [2] | [3] | [4] | [5]

B2: humanized 11K2 H2-L1 (antibody, human IgG1, kappa, V domains shown)
VH: QVQLVQSGAEVKKPGSSVKVSCKASGLTISDTYMHWVRQAPGQGLEWMGRIDPANGNTKFDPKFQGRVTITADTSTSTAYMELSSLRSEDTAVYYCARGVFGFFDYWGQGTTVTVSS
VL: DIQMTQSPSSLSASVGDRVTITCKATEDIYNRLAWYQQKPGKAPKLLISGATSLETGVPSRFSGSGSGKDYTLTISSLQPEDFATYYCQQFWSAPYTFGGGTKVEIKR
binds: [1] | [2] | [3] | [4] | [5]

B3: chimeric 11K2 antibody (antibody, human IgG1, kappa, V domains shown)
VH: EVQLQQSGAELVKAGASVKLSCPASGLNIKDTYMHWVKQRPEQGLEWIGRIDPANGNTKFDPKFQGKATITADTSSNTAYLQLSSLTSEDTAVYYCARGVFGFFDYWGQGTTLTVSS
VL: DIQMTQSSSSFSVSLGDRVTITCKATEDIYNRLAWYQQKPGSAPRLLISGATSLETGVPSRFSGSGSGKDYTLSITSLQTEDVATYYCQQFWSAPYTFGGGTKLEIKR
binds: [2] | [3] | [4] | [5]

B4: monoclonal antibody 6I5 (antibody, mouse IgG1, V domains shown)
VH: EVQLQQSGAELVKAGASVKLSCPASGLNIKDTYMHWVKQRPEQGLEWIGRIDPANGNTKFDPKFQGKATITADTSSNTAYLQLSSLTSEDTAVYYCARGVFGFFDYWGQGTTLTVSS
VL: DIQMTQSSSSFSVSLGDRVTITCKATEDIYNRLAWYQQKPGSAPRLLISGATSLETGVPSRFSGSGSGKDYTLSITSLQTEDVATYYCQQFWSAPYTFGGGTKLEIK
binds: murine MCP-5 (mouse) | human MCP-1 (human) [6] | [7] | murine MCP-3 (mouse) | human MCP-1 (human) [8] | human MCP-1 (human) [9]

B5: mouse monoclonal antibody 11K2 (antibody, V domains shown)
VH: EVQLQQSGAELVKAGASVKLSCPASGLNIKDTYMHWVKQRPEQGLEWIGRIDPANGNTKFDPKFQGKATITADTSSNTAYLQLSSLTSEDTAVYYCARGVFGFFDYWGQGTTLTVSS
VL: DIQMTQSSSSFSVSLGDRVTITCKATEDIYNRLAWYQQKPGSAPRLLISGATSLETGVPSRFSGSGSGKDYTLSITSLQTEDVATYYCQQFWSAPYTFGGGTKLEIK
binds: [10]

B6: monoclonal antibody 5A13 (antibody, mouse IgG1, V domains shown)
VH: EVQLQQSGAELVKAGASVKLSCPASGLNIKDTYMHWVKQRPEQGLEWIGRIDPANGNTKFDPKFQGKATITADTSSNTAYLQLSSLTSEDTAVYYCARGVFGFFDYWGQGTTLTVSS
VL: DIQMTQSSSSFSVSLGDRVTITCKATEDIYNRLAWYQQKPGSAPRLLISGATSLETGVPSRFSGSGSGKDYTLSITSLQTEDVATYYCQQFWSAPYTFGGGTKLEIK
binds: murine MCP-5 (mouse) | human MCP-1 (human) [6] | [7] | murine MCP-3 (mouse) | human MCP-1 (human) [8] | human MCP-1 (human) [9]

B7: monoclonal antibody 4N4 (antibody, mouse IgG1, V domains shown)
VH: EVQLQQSGAELVKAGASVKLSCPASGLNIKDTYMHWVKQRPEQGLEWIGRIDPANGNTKFDPKFQGKATITADTSSNTAYLQLSSLTSEDTAVYYCARGVFGFFDYWGQGTTLTVSS
VL: DIQMTQSSSSFSVSLGDRVTITCKATEDIYNRLAWYQQKPGSAPRLLISGATSLETGVPSRFSGSGSGKDYTLSITSLQTEDVATYYCQQFWSAPYTFGGGTKLEIK
binds: murine MCP-5 (mouse) | human MCP-1 (human) [6] | [7] | murine MCP-3 (mouse) | human MCP-1 (human) [8] | human MCP-1 (human) [9]

B8: monoclonal antibody 6D21 (antibody, mouse IgG1, V domains shown)
VH: EVQLQQSGAELVKAGASVKLSCPASGLNIKDTYMHWVKQRPEQGLEWIGRIDPANGNTKFDPKFQGKATITADTSSNTAYLQLSSLTSEDTAVYYCARGVFGFFDYWGQGTTLTVSS
VL: DIQMTQSSSSFSVSLGDRVTITCKATEDIYNRLAWYQQKPGSAPRLLISGATSLETGVPSRFSGSGSGKDYTLSITSLQTEDVATYYCQQFWSAPYTFGGGTKLEIK
binds: murine MCP-5 (mouse) | human MCP-1 (human) [6] | [7] | murine MCP-3 (mouse) | human MCP-1 (human) [8] | human MCP-1 (human) [9]

B9: monoclonal antibody 7H1 (antibody, mouse IgG1, V domains shown)
VH: EVQLQQSGAELVKAGASVKLSCPASGLNIKDTYMHWVKQRPEQGLEWIGRIDPANGNTKFDPKFQGKATITADTSSNTAYLQLSSLTSEDTAVYYCARGVFGFFDYWGQGTTLTVSS
VL: DIQMTQSSSSFSVSLGDRVTITCKATEDIYNRLAWYQQKPGSAPRLLISGATSLETGVPSRFSGSGSGKDYTLSITSLQTEDVATYYCQQFWSAPYTFGGGTKLEIK
binds: murine MCP-5 (mouse) | human MCP-1 (human) [6] | [7] | murine MCP-3 (mouse) | human MCP-1 (human) [8] | human MCP-1 (human) [9]

Reference: US20070134236A1
